Laboratory results published in patent US20110135573A1, “METALLOPROTEINASE 9 AND METALLOPROTEINASE 2 BINDING PROTEINS” (DYAX CORP., priority 2009, published 2011).

Biological target: MMP-9 (PMA-activated) (Homo sapiens (Human))
Test: table heading; found by phage selection on biotinylated MMP-9

| binding | Binder |
| --- | --- |
| binds | M0076-D03 (Fab, V domains shown) VH: EVQLLESGGGLVQPGGSLRLSCAASGFTFSLYRMNWVRQAPGKGLEWVSYIGSSGGATAYADSVKGRFTISRDNSKNTLYLQMNSLRAEDTAVYYCARGAWYLDSWGQGTLVTVSS VL: DIQMTQSPSSLSASVGDRVTITCRASQGIRNDLDWYQQKPGTAPKRLIYSASNLQSGVPSRFSGSGSGTEFTLTISNLQPEDLATYFCLQHNSFPLTFGQGTKVEIK |
| binds | M0078-G07 (Fab, V domains shown) VH: EVQLLESGGGLVQPGGSLRLSCAASGFTFSSYTMEWVRQAPGKGLEWVSWISPSGGYTFYADSVKGRFTISRDNSKNTLYLQMNSLRAEDTALYYCARGYSYGSIDLWGRGTLVTVSS VL: DIQMTQSPGTLSVSPGERATLSCRASQSVSSDLAWYQHKPGQAPRLLIYGVSTKATGVPARFSGSGSGTEFTLTISSLQSEDLAVYYCQQYHNWPPLTFGGGTKVEIK |

These are yes or no findings as the source states them, for the method shown. Binding calls can cover weak binding; strength is not graded here.
